In article PMC6010280:

How the values were obtained:
[1] = target: T1, intein-BHMT (betaine homocysteine S-methyltransferase) (R. norvegicus) (UniProt O09171); assay: affinity purification with mass spectrometry; intein-BHMT held on chitin beads; rat liver cytosol first passed over a bead-only and an intein column; 10 mM sodium phosphate pH 7.4, 5 mM EDTA, 0.1 mM EGTA, 4°C; bound proteins eluted with a 0-500 mM NaCl gradient (peak at 50-100 mM NaCl); LC-MS/MS; only the target purified
T1 sequence: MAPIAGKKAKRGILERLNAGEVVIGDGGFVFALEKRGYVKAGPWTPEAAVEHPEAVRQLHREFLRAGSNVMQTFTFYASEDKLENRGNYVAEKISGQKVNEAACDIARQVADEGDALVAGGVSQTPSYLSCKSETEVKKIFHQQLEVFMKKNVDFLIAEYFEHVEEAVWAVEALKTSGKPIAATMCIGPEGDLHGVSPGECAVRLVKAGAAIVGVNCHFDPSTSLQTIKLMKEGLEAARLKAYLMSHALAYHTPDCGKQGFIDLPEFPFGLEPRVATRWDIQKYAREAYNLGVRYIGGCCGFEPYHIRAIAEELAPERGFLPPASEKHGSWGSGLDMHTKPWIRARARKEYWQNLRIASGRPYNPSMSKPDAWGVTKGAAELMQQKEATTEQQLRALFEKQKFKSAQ

[2] = target: T1, intein-BHMT (betaine homocysteine S-methyltransferase) (R. norvegicus); assay: affinity purification with mass spectrometry; same intein-BHMT chitin column after the salt gradient; proteins recovered together with BHMT upon intein excision with 30 mM 2-mercaptoethanol, 48 h at 23°C (strong interactors); LC-MS/MS; only the target purified

B1: CXXC-type zinc finger protein 5, CXXC5 (protein, UniProt Q5XIQ3 1-316)
chain: MSSLGGGSQDAGGSSSSSNTSSSSGSGQKAGGTDKSATVAATAPASVADDAPPPERRNKSGIISEPLNKSLRRSRPLSHYSSFGSSGGAGSMMGGESADKAAAAAASLLANGHDLAAAMAVDKSNPTSKHKSGAVASLLSKAERATELAAEGQLTLQQFAQSTEMLKRVVQEHLPLMSEAGAGLPDMEAVAGAEALNGQSDFPYLGAFPINPGLFIMTPAGVFLAESALHMAGLAEYPMQGELASAISSGKKKRKRCGMCAPCRRRINCEQCSSCRNRKTGHQICKFRKCEELKKKPSAALEKVMLPSGAAFRWFQ
With B1 the binding [1] was “binds”.

B2: RGD1306462 protein (protein, UniProt Q4V8C1 1-375)
chain: MENGERKKLTSTLSDGDHKEENKLKQGIPQDLSSSPKLDRYKIARQLTEKAIKEKKIFSIYGHYPVIRATLRRKGWVEKKFNFFPKPLQNVEDKSAETKENQEIALERFDDIHDVMSRLVKNEIPYLLWTIKRDVVDYHSLTCDQMLNHYGKTASFTTKIGLCLNMRSLPWYVQANPNTFFPRCYGLCTESEKQEFLDDFRRTVAASILKWVVHHQNYCNRAKGKSKKEEAKNGDPSPKKDPDNPDLKLPSLSGQVVDTACKVCQAYLGQLEHEDIDLSDASAEALSEEEWNDLTQQYYLLVHGNASITDSRSYFAQCQALLSKISSVNPQTEIDGIRNIWIIKPAAKSRGRGLLPTEDSILRDALWTVQTCGSQ
In the case of B2, the binding [1] is reported as “binds”.

B3: BTB/POZ domain-containing protein KCTD7 (protein, UniProt B1WC97 1-289)
chain: MVVVNGREPDSRHSDGAMSSSEAEDDFLEPATPTATQAGHGLPLLPQEFPEVVPLNIGGAHFTTRLSTLRRYEDTMLAAMFSGRHYIPTDSEGRYFIDRDGTHFGDVLNFLRSGDLPPREHVRAVHKEAQYYAIGPLLEQLENMQPLKGEKVRQAFLGLMPYYKDHLERIVEIARLRAVQRKARFAKLKVCVFKEEMPITPYECPLLNSLRFERSESDGQLFEHHCEVDVSFGPWEAVADVYDLLHCLVTDLSAQGLTVDHQCIGVCDKHLVNHYYCKRPIYEFKITWW
With B3 the binding [1] was “binds”.

B4: Coatomer subunit beta (protein, UniProt P23514 1-953)
chain: MTAAENVCYTLINVPMDSEPPSEISLKNDLEKGDVKSKTEALKKVIIMILNGEKLPGLLMTIIRFVLPLQDHTIKKLLLVFWEIVPKTTPDGRLLHEMILVCDAYRKDLQHPNEFIRGSTLRFLCKLKEAELLEPLMPAIRACLEHRHSYVRRNAVLAIYTIYRNFENLIPDAPELIHDFLVNEKDASCKRNAFMMLIHADQDRALDYLSTCIDQVQTFGDILQLVIVELIYKVCHANPSERARFIRCIYNLLQSSSPAVKYEAAGTLVTLSSAPTAIKAAAQCYIDLIIKESDNNVKLIVLDRLVELKEHPAHERVLQDLVMDILRVLSTPDLEVRKKTLQLALDLVSSRNVEELVIVLKKEVIKTNNVSEHEDTDKYRQLLVRTLHSCSVRFPDMAANVIPVLMEFLSDSNEAAAADVLEFVREAIQRFDNLRMLIVEKMLEVFHAIKSVKIYRGALWILGEYCSTKEDIQSVMTEVRRSLGEIPIVESEIKKEAGELKPEEEITVGPVQKLVTEMGTYATQSALSSSRPTKKEEDRPPLRGFLLDGDFFVAASLATTLTKIALRYVALVQEKKKQNSFVAEAMLLMATILHLGKSSLPKKPITDDDVDRISLCLKVLSECSPLMNDIFNKECRQSLSQMLSAKLEEEKLSQKKESEKRNVTVQPDDPISFMQLTAKNEMNCKEDQFQLSLLAAMGNTQRKEAADPLASKLNKVTQLTGFSDPVYAEAYVHVNQYDIVLDVLVVNQTSDTLQNCTLELATLGDLKLVEKPSPLTLAPHDFANIKANVKVASTENGIIFGNIVYDVSGAASDRNCVVLSDIHIDIMDYIQPATCTDAEFRQMWAEFEWENKVTVNTNVTDLNDYLQHILKSTNMKCLTPEKALSGYCGFMAANLYARSIFGEDALANVSIEKPVHQGPDAAVTGHIRIRAKSQGMALSLGDKINLSQKKTSL
With B4 the binding [1] was “binds”.

B5: High mobility group protein 2 (HMGB-2) (protein, UniProt P52925 1-210)
chain: MGKGDPNKPRGKMSSYAFFVQTCREEHKKKHPDSSVNFAEFSKKCSERWKTMSAKEKSKFEDLAKSDKARYDREMKNYVPPKGDKKGKKKDPNAPKRPPSAFFLFCSEHRPKIKSEHPGLSIGDTAKKLGEMWSEQSAKDKQPYEQKAAKLKEKYEKDIAAYRAKGKSEVGKKGPGRPTGSKKKNEPEDEEEEEEEEDDEDEEEEDEDEE
With B5 the binding [1] was “binds”.

B6: Heterogeneous nuclear ribonucleoprotein H (protein, UniProt Q8VHV7 1-449)
chain: MMLGAEGGEGFVVKVRGLPWSCSADEVQRFFSDCKIQNGAQGIRFIYTREGRPSGEAFVELESEDEVKLALKKDRETMGHRYVEVFKSNNVEMDWVLKHTGPNSPDTANDGFVRLRGLPFGCSEEEIVQFFSGLEIVPNGITLPVDFQGRSTGEAFVQFASQEIAEKALKKHKERIGHRYIEIFKSSRAEVRTHYDPPRKLMAMQRPGPYDRPGAGRGYNSIGRGAGFERMRRGAYGGGYGGYDDYNGYNDGYGFGSDRFGRDLNYCFSGMSDHRYGDGGSTFQSTTGHCVHMRGLPYRATENDIYNFFSPLNPVRVHIETGPDGRVTGEADVEFATHEDAVAAMSKDKANMQHRYVELFLNSTAGASGGAYEHRYVELFLNSTAGASGGAYGSQMMGGMGLSNQSSYGGPASQQLSGGYGGGYGGQSSMSGYDQVLQENSSDFQSNIA
For B6, the binding [1] was “binds”.

B7: Sjogren syndrome antigen B, SSB (protein, UniProt P38656 1-415)
chain: MAENGDNEKMAALEAKICHQIEYYFGDFNLPRDKFLKEQIKLDEGWVPLETMIKFNRLNRLTTDFNVIVQALSKSKANLMEVSADKTKIRRSPSRPLPEVTDEYKNDVKNRSVYIKGFPTDATLDDIKEWLDDKGQILNIQMRRTLHKTFKGSIFAVFDSIQSAKKFVDTPGQKYKDTNLLILFKEDYFAKKNEERKQSKVEAKLKAKQEHEGRHKPGSTETRALEGKMGCLLKFSGDLDDQTCREDFHFLFSNHGEIKWIDFVRGAKEGIILFKEKAKDALEKARSANNGNLLLRNKKVTWKVLEGHAEKDAMKKITDDQQESLNKWKSKGGHAARRFKGSHVFTAARRFKGRGKGNRPAYAGAPKGRGQFQGRRTRFDDDDHRRGPVKRGIDGRDREEPASKHKKRENGARDK
With B7 the binding [1] was “binds”.

B8: Ephrin B1 (entry Q6P7B6) (protein, UniProt P52796 25-345)
chain: ATPLAKNLEPVSWSSLNPKFLSGKGLVIYPKIGDKLDIICPRAEAGRPYEYYKLYLVRPEQAAACSTVLDPNVLVTCNKPQQEIRFTIKFQEFSPNYMGLEFKKYHDYYITSTSNGSLEGLENREGGVCRTRTMKIVMKVGQDPNAVTPEQLTTSRPSKESDNTVKTATQAPGRGSQGDSDGKHETVNQQEKSGPGAGGSGSGDTDSFFNSKVALFAAVGAGCVIFLLIIIFLTVLLLKLRKRHRKHTQQRAAALSLSTLASPKGDSGTAGTEPSDIIIPLRTTENNYCPHYEKVSGDYGHPVYIVQEMPPQSPANIYYKV
B8 was tested, and the binding [2] was “binds”.

B9: High affinity cGMP-specific 3’,5’-cyclic phosphodiesterase 9A (protein, UniProt Q8QZV1 1-534)
chain: MGAGSSSYRPKAIYLDIDGRIQKVVFSKYCNSSDIMDLFCIATGLPRNTTISLLTTDDAMVSIDPTMPANSERTPYKVRPVAVKQVSEREELVQGVLAQVAEQFSRAFKINELKAEVANHLAMLEKRVELEGLKVVEIEKCKSDIKKMREELAARNNRTNCPCKYSFLDNKKLTPRRDVPTYPKYLLSPETIEALRKPTFDVWLWEPNEMLSCLEHMYHDLGLVRDFSINPITLRRWLLCVHDNYRSNPFHNFRHCFCVTQMMYSMVWLCGLQEKFSQMDILVLMTAAICHDLDHPGYNNTYQINARTELAVRYNDISPLENHHCAIAFQILARPECNIFASVPPEGFRQIRQGMITLILATDMARHAEIMDSFKEKMENFDYSNEEHLTLLKMILIKCCDISNEVRPMEVAEPWVDCLLEEYFMQSDREKSEGLPVAPFMDRDKVTKATAQIGFIKFVLIPMFETVTKLFPIVEETMLRPLWESREHYEELKQLDDAMKELQKKTENLTSGATENAPEKTRDAKDNEDRSPPN
B9 was tested, and the binding [2] was “binds”.

B10: Roundabout homolog 4 (protein, UniProt Q80W87 38-961)
chain: LDSPPQILVHPQDQLLQGSGPAKMSCRASGQPLPTIRWLLNGQPLSMATPDLHYLQSDGTLLLHRPPTHGRPQDDQNILSAILGVYTCEASNRLGTAVSRGARLSVAVLQEDFRIQPRDTVAVVGESLVLECGPPWGYPKPSVSWWKDGKPLVLQPGKRTVSGDSLMVARAEKNDTGTYMCMATNNAGQRESRAARVSIQESPDHKEHLELLAVRIQLENVTLLNPEPVKGPKPGPAVWLSWKVSGPAAPAQSYTALFRAQRDPRDQGSPWTEVLLDGLLNAKLGGLRWGQDYEFKVRPSSGRARGPDSNVLLLRLPEQVPSAPPQEVTLRPGNGSVFVSWAPPPAENHNGFIRGYQVWSLGNASLPAANWTVVGEQTQLEIAARMPGSYCVQVAAVTGAGAGEPSIPVCLLLEQAMEQSARDPSKHVSWTLEQLRATLKRPEVIASGAVLLWLLLLGIAVCIYRRRKAGVHLGPGLYRYTSEDAILKHRMDHSDSPWLADTWRSTSGSRDLSSSSSLSSRLGVDPRDPLDGRRSLISWDPRSPGVPLLPDTSTFYGSLIAEQTSSPPVRPSPQTPAARRLPPKLTGTSSPWASSDSLCSRRGLCSPRMSLAPAEAWKAKKKQELHQANSSPLLQGSHPMEIWAWELGSRASKNLSQSPGPNTCSPREAPGAVVAWRALGPQLHRNSSELAARPLPPTPLSLRGAPSHDPQSQCVEKLQAPSSDPLPAAPLSVLNSSRPSSPQASFLSVPSPGSSNLSSSSLSSLEEEDQDSVLTPEEVALCLELSDGEETPTNSVSPMPRAPSPPATYGYISIPTSSGLADMGRAGGGVGSEVGNLLCPPRLCPTPTPSEGSLANGWGSASEDNVPSARASLVSSSDGSFLADAHFARALAVAVDSFGFSLEPREADCVFTGMWARPPPLEWT
In the case of B10, the binding [2] is reported as “binds”.

B11: Microtubule associated scaffold protein 2 (protein, UniProt A0JPQ3 1-315)
chain: MGHHCCKPYICLQCLDKTSERALAKEKELSIELANIRDEVAFNTAKCEKLQKEKEALERRFEEELRRLGWQQQAEVQELQERLQQQFQAESARLQAEHQDQMLRMRCQHQEQVEDITASHEAALLEMENNHTVAITILQDDHDHKVQELMSTHEFEKKELEENFEKLRLSLQIALAPYQHLEEDMQSLKQVLEMKNQQIHLQEKKIIELEKLVEKNIILEEKIQVLQQQNEDLKARIDQNTVVTRQLSEENANLQEYVEKETQEKKRLSRTNEELLWKLQTGDPTSPIKLSPTSPVYRGSSSGPSSPARVSTTPR
B11 was tested, and the binding [2] was “binds”.

Results are given in words; binding and its absence hold for the method and conditions named. Binding seen in cells or lysates may run through a third protein. A yes stands for co-enrichment or nearness to the bait. Other partners may have been found.
